The exact form of at least one protein or probe is not confirmed.

Experimental findings from paper PMC6873818 are described below.

The data set has as its system Replication factor C (RFC) complex (Saccharomyces cerevisiae). The data set is described as follows: EMSA. The note with it: 2 mM Mg2+, 25 mM Tris-HCl pH 7.5, 50 mM NaCl, 2 mM MgCl2, 2 mM DTT, 0.1 mg/mL BSA, 1 nM oligo, 0-256 nM RFC, 15 min, room temperature, 10% native gel, recombinant protein, label: 32P (T4 PNK, 5' end). (In EMSA bound probe runs differently from free probe, usually more slowly.)

A word on the Kd: it is the equilibrium constant for the complex coming apart. CTCGAGGTCGTCATCGACCTCGAGATCA [dsDNA]: the Kd (folded or branched DNA) came out at 1.9 nM.
For CUCGAGGUCGUCAUCGACCUCGAGAUCA [dsRNA], the Kd amounted to 25 nM.
